The target of assay [1] is factor B. Put plainly: ELISA; complement proteins (each 500 ng in PBS) coated on MediSorp plates; 500 ng ARMS2 in 2% BSA, 0.05% Tween-20 in PBS, 1 h RT; ARMS2 detected with ARMS2 antiserum; both purified.
Assay [2] has as its target iC3b. Described as above.

No constants are given. Whether binding was seen depends on the method and setting.

B1: recombinant ARMS2 (age-related maculopathy susceptibility 2) (natural protein, human, UniProt P0C7Q2 1-107, looked up)
chain: MLRLYPGPMVTEAEGKGGPEMASLSSSVVPVSFISTLRESVLDPGVGGEGASDKQRSKLSLSHSMIPAAKIHTELCLPAFFSPAGTQRRFQQPQHHLTLSIIHTAAR
notes: ARMS2, human, codon usage optimized full length cDNA; Glycosylated in P. pastoris (17 and 15 kDa bands); also called His-tagged ARMS2; rARMS2
On to B1, for which the binding result in assay [1] and in assay [2] was “no binding (tested: 500 ng ARMS2)” in each case.

For the origin of these results see publication PMC5234120, “Age-related macular degeneration associated polymorphism rs10490924 in ARMS2 results in deficiency of a complement activator” (Journal of Neuroinflammation, 2017).
